Results published in the supplement of paper PMC12067093, “Discovery and optimisation of a covalent ligand for TRIM25 and its application to targeted protein ubiquitination” (Chemical Science, 2025).
The other results are listed elsewhere or left out.

Amino acid sequences for entries named in this document (tags omitted). A change or cut given only in a name is not applied to a line headed by its entry.
UniProt Q16875: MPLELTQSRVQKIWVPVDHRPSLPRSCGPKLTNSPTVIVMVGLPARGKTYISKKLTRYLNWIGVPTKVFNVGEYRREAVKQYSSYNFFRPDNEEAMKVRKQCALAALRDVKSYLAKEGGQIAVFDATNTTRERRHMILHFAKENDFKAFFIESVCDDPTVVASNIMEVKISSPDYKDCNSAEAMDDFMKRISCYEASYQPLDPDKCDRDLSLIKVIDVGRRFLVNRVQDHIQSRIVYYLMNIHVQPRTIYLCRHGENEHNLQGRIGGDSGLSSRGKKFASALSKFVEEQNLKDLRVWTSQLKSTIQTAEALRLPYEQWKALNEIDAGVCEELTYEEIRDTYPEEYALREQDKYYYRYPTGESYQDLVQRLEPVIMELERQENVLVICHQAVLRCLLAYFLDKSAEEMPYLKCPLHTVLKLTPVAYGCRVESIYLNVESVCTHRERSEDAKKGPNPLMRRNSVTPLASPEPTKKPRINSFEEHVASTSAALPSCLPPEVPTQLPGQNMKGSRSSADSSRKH
UniProt Q8WXW3: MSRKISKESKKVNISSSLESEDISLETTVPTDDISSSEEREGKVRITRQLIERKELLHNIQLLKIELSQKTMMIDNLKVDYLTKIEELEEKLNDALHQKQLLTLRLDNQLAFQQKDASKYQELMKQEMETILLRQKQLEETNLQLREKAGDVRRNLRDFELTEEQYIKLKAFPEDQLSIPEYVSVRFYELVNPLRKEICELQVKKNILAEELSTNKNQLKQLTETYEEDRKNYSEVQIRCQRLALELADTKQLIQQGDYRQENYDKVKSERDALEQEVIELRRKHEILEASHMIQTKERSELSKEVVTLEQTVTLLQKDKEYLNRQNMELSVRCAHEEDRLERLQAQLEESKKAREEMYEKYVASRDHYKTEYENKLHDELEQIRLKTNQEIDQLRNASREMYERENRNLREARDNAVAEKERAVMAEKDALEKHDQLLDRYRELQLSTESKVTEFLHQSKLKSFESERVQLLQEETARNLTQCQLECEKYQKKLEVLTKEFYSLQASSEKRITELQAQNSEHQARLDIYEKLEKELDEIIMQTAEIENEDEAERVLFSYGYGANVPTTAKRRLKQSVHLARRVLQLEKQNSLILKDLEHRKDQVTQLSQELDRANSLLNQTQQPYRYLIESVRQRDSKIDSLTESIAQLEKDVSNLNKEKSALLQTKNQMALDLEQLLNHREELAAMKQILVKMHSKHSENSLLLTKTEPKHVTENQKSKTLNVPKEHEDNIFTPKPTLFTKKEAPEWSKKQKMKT
UniProt O75925, whole entry, looked up: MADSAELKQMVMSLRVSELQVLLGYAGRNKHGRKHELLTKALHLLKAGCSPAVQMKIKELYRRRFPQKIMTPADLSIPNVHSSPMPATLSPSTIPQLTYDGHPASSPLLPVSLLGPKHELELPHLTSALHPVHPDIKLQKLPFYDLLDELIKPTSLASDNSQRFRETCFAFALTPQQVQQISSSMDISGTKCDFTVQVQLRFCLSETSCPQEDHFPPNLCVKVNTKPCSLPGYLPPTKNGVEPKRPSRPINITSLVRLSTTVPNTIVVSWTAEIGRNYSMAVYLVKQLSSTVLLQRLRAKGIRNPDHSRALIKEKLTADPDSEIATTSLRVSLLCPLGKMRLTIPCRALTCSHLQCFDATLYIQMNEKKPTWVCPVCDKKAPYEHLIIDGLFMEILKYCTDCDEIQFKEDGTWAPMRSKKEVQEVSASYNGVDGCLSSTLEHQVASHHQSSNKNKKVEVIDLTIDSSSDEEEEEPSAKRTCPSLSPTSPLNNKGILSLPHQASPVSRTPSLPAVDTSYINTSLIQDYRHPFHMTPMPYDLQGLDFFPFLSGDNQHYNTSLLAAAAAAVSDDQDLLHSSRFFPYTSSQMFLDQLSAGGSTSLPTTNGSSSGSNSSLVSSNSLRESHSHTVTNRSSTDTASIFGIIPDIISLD
UniProt Q8NEB9, whole entry, looked up: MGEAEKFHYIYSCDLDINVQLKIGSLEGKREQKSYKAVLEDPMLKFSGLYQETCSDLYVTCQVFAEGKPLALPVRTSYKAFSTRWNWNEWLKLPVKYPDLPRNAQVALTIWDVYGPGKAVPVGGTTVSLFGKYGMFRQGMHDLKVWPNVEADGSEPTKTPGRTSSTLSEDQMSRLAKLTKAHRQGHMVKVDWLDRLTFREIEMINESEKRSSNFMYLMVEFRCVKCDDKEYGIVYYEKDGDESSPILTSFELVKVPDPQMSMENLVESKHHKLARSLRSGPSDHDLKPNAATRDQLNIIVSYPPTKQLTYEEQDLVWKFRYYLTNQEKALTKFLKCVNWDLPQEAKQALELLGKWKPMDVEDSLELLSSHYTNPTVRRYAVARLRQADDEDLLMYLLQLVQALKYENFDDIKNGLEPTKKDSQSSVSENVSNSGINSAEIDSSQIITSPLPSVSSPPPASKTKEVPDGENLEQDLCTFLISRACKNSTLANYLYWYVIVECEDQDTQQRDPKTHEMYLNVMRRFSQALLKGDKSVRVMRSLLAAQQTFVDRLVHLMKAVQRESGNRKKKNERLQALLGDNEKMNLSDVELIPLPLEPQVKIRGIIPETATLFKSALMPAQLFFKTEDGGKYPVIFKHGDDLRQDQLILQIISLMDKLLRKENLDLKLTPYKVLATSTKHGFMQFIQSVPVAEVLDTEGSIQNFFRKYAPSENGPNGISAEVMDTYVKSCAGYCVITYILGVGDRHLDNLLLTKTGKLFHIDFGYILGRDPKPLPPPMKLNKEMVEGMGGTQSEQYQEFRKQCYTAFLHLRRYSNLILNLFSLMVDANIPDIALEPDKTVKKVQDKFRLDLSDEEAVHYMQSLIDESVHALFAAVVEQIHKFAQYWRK
UniProt Q96G03: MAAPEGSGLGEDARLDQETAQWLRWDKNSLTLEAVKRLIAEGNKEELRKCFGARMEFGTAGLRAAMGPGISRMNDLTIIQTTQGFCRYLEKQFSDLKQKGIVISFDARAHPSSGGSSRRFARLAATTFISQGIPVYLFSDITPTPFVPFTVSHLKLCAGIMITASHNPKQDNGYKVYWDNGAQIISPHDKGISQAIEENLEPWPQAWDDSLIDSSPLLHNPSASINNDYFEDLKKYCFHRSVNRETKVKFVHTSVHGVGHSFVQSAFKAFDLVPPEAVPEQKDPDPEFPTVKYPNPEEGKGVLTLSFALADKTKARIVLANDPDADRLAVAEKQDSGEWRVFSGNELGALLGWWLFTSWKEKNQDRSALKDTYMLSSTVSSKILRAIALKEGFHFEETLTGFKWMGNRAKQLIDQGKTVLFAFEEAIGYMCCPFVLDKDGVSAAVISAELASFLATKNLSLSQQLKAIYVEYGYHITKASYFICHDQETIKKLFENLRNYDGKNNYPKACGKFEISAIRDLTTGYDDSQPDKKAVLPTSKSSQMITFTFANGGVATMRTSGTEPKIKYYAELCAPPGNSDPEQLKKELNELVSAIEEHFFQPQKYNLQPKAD
UniProt Q9NRX4: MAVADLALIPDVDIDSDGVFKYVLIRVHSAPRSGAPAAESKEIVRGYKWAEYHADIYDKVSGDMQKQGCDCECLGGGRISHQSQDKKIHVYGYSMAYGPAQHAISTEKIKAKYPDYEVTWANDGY
UniProt P00558: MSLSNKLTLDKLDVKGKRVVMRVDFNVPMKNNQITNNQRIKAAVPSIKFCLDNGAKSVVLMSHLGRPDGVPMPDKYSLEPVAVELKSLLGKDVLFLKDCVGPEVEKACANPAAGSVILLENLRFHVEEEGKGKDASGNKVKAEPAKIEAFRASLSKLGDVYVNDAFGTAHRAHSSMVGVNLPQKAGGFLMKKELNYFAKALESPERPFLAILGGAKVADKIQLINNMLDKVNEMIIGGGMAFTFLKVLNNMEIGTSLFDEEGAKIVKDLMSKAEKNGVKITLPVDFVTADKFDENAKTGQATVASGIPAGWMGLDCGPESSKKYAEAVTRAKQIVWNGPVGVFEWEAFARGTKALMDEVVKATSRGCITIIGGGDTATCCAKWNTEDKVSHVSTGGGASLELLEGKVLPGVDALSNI
UniProt O15067: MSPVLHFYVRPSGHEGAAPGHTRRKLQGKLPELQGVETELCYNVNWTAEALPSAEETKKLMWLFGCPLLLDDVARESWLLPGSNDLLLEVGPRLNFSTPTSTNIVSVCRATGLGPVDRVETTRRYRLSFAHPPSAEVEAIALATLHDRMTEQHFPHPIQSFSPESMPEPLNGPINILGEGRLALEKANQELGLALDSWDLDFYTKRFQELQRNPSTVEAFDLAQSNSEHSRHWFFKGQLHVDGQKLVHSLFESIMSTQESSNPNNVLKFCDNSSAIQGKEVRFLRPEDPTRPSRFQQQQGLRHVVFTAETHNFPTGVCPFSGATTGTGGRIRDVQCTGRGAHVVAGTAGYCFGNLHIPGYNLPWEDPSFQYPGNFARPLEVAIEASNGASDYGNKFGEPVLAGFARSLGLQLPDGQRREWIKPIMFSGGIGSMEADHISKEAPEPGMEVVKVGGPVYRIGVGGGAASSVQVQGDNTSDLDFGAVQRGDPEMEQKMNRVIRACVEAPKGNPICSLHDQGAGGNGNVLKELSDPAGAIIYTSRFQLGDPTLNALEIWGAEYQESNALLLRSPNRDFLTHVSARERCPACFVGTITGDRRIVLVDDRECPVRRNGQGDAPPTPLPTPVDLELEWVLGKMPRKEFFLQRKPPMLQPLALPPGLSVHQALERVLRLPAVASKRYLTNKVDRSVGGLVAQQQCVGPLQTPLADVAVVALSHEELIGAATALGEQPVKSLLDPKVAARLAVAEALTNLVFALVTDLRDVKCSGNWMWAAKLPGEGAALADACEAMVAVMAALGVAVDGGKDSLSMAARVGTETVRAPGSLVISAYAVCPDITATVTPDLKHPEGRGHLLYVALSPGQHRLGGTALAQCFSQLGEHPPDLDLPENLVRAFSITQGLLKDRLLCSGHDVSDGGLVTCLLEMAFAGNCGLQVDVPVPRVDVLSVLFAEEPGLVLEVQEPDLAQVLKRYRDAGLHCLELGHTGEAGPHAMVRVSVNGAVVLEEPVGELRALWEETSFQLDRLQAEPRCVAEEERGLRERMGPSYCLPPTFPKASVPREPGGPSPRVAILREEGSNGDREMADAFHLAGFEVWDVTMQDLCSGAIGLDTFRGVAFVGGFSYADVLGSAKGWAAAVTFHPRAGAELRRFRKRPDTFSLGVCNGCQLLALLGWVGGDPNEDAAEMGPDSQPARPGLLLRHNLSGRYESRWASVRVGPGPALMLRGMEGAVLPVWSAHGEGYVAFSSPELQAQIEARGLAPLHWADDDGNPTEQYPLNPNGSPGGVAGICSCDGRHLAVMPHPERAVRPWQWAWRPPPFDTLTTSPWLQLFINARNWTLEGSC
UniProt O43175: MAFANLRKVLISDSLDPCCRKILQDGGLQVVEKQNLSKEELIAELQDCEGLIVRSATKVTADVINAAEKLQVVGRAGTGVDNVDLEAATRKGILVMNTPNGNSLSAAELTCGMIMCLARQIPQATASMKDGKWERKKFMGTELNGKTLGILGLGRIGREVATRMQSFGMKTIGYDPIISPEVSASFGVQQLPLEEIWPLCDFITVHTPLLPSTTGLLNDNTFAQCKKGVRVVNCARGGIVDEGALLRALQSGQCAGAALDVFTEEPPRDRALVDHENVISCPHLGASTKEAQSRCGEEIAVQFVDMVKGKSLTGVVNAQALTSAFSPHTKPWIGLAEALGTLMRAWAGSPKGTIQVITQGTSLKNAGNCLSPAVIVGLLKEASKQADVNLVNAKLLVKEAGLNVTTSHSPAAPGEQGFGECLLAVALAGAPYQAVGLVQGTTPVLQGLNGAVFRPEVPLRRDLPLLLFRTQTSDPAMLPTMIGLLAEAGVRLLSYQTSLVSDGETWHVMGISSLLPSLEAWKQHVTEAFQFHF
UniProt Q96HS1, whole entry, looked up: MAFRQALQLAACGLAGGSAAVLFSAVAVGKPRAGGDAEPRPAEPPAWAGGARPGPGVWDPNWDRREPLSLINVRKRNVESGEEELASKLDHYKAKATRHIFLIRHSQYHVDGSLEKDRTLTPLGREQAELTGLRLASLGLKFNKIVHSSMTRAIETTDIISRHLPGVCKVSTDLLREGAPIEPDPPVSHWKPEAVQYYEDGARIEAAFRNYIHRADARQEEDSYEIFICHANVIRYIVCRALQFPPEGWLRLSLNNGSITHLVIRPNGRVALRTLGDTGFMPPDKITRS
UniProt P53609, whole entry, looked up: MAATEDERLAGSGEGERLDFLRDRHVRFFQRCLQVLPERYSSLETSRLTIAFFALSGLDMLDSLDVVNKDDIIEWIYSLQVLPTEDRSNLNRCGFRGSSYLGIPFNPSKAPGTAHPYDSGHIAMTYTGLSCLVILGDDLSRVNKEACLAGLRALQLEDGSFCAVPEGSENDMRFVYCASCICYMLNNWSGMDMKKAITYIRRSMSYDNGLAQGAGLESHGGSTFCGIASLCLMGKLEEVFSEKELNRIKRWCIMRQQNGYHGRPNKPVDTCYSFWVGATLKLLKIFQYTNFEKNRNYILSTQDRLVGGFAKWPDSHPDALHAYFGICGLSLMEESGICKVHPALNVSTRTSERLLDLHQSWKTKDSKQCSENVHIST

Compound: Cc1cc(ccc1-c1ccccc1)C(=O)N1CCCN(CC1)C(=O)CCl [compound 10]
Test: probe-labelled cysteine peptide fold change vs DMSO (competition) (log2 fold change); higher = less target engagement (more negative = stronger competition)
Details: THP-1, incubation time: 4 h
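Further: competitive profiling in live THP-1 cells: cysteine peptides tagged with an iodoacetamide desthiobiotin (IA-DTB) probe, intensity after compound treatment relative to DMSO-treated cells.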

| Target | probe-labelled cysteine peptide fold change (10 µM) | probe-labelled cysteine peptide fold change (50 µM) |
| --- | --- | --- |
| PEX5_P50542_11_ELVEAECGGANPLMK (UniProt P50542) | -0.0314 | -0.0959 |
| PFKFB3_Q16875_387_LEPVIMELERQENVLVICHQAVLR (UniProt Q16875) | 0.209 | -0.0964 |
| PGD_P52209_402_SAVENCQDSWR (UniProt P52209) | 0.0887 | 0.174 |
| PI4K2A_Q9BTU6_320_YDCPMDSSSSR (UniProt Q9BTU6) | -0.0602 | -0.277 |
| PHACTR3_Q96KR7_126_TCNPDGGPR (UniProt Q96KR7) | 0.0125 | 0.0644 |
| PIBF1_Q8WXW3_334_CAHEEDRLER (UniProt Q8WXW3) | 0.47 | 1.41 |
| PIAS1_O75925_192_CDFTVQVQLR (UniProt O75925) | 0.0184 | -0.123 |
| PIK3C3_Q8NEB9_336_CVNWDLPQEAK (UniProt Q8NEB9) | 0.0653 | 0.108 |
| PIK3CD_O00329_132_GLHEFDSLCDPEVNDFR (UniProt O00329) | -0.0244 | -0.215 |
| PGM2_Q96G03_484_ASYFICHDQETIK (UniProt Q96G03) | -0.0192 | 0.382 |
| PFKFB3_Q16875_155_AFFIESVCDDPTVVASNIMEVK (UniProt Q16875) | 0.0401 | 0.00669 |
| PHPT1_Q9NRX4_71+73_QGCDCECLGGGR (UniProt Q9NRX4) | 0.0867 | -0.192 |
| PECAM1_P16284_109_CTVIVNNK (UniProt P16284) | 0.0288 | 0.348 |
| PGK1_P00558_108_ACANPAAGSVILLENLR (UniProt P00558) | -0.0975 | 0.106 |
| PHKA1_P46020_238_GGPQSVIHVLADEVQHCQSILNSLLPR (UniProt P46020) | 0.143 | -0.161 |
| PGK1_P00558_379+380_GCITIIGGGDTATCCAK (UniProt P00558) | 0.251 | -0.741 |
| PFAS_O15067_831_APGSLVISAYAVCPDITATVTPDLK (UniProt O15067) | -0.133 | -0.221 |
| PGM1_P36871_374_LSLCGEESFGTGSDHIR (UniProt P36871) | 0.0361 | -0.0554 |

| Target | probe-labelled cysteine peptide fold change (10 µM) | probe-labelled cysteine peptide fold change (50 µM) |
| --- | --- | --- |
| PHGDH_O43175_295_CGEEIAVQFVDMVK (UniProt O43175) | -0.0946 | -0.0481 |
| PGAM5_Q96HS1_12_QALQLAACGLAGGSAAVLFSAVAVGKPR (UniProt Q96HS1) | -0.116 | -0.523 |
| PHF20_Q9BVI0_840_SVEESYITSEHCYQK (UniProt Q9BVI0) | -0.209 | -0.0845 |
| PFAS_O15067_606_IVLVDDRECPVRR (UniProt O15067) | -0.0874 | -0.449 |
| PIK3CA_P42336_215_INHDCVPEQVIAEAIR (UniProt P42336) | 0.0827 | 0.255 |
| PGGT1B_P53609_162_ALQLEDGSFCAVPEGSENDMR (UniProt P53609) | -0.0186 | -0.573 |
| PEX7_O00628_207_IVIPAHQAEILSCDWCK (UniProt O00628) | -0.193 | -0.386 |
| PHGDH_O43175_111+116_KGILVMNTPNGNSLSAAELTCGMIMCLAR (UniProt O43175) | 0.412 | 0.139 |
| PHKA1_P46020_844_KVEALDEACTDLLSHQK (UniProt P46020) | -0.252 | 0.0877 |
| PHGDH_O43175_18_KVLISDSLDPCCR (UniProt O43175) | -0.156 | -0.857 |
| PGM2_Q96G03_510_ACGKFEISAIR (UniProt Q96G03) | -0.395 | -0.595 |
| PHF3_Q92576_627_QCHKPQQQAPAMK (UniProt Q92576) | -0.059 | -0.385 |
| PES1_O00541_153_CHVQTIQLCR (UniProt O00541) | -0.085 | -0.106 |
| PFAS_O15067_108_LNFSTPTSTNIVSVCR (UniProt O15067) | 0.275 | 0.139 |
| PIGK_Q92643_280_SLCVSTPGHR (UniProt Q92643) | 0.0179 | 0.141 |
| PIK3CB_P42338_551_EILDRDPLSQLCENEMDLIWTLR (UniProt P42338) | -0.101 | -0.0111 |
| PGAM1_P18669_55_DAGYEFDICFTSVQK (UniProt P18669) | 0.0908 | 0.0962 |
| PHGDH_O43175_19_VLISDSLDPCCR (UniProt O43175) | -0.0779 | -0.356 |

Shown bar-delimited: entries from further up
Target | probe-labelled cysteine peptide fold change (10 µM) | probe-labelled cysteine peptide fold change (50 µM)
PIBF1_Q8WXW3_334_CAHEEDRLER (UniProt Q8WXW3) | 0.47 | 1.41
PIAS1_O75925_192_CDFTVQVQLR (UniProt O75925) | 0.0184 | -0.123
PIK3C3_Q8NEB9_336_CVNWDLPQEAK (UniProt Q8NEB9) | 0.0653 | 0.108
PIK3CD_O00329_132_GLHEFDSLCDPEVNDFR (UniProt O00329) | -0.0244 | -0.215
PGM2_Q96G03_484_ASYFICHDQETIK (UniProt Q96G03) | -0.0192 | 0.382
PFKFB3_Q16875_155_AFFIESVCDDPTVVASNIMEVK (UniProt Q16875) | 0.0401 | 0.00669
PHPT1_Q9NRX4_71+73_QGCDCECLGGGR (UniProt Q9NRX4) | 0.0867 | -0.192
PECAM1_P16284_109_CTVIVNNK (UniProt P16284) | 0.0288 | 0.348
PGK1_P00558_108_ACANPAAGSVILLENLR (UniProt P00558) | -0.0975 | 0.106
PHKA1_P46020_238_GGPQSVIHVLADEVQHCQSILNSLLPR (UniProt P46020) | 0.143 | -0.161
PGK1_P00558_379+380_GCITIIGGGDTATCCAK (UniProt P00558) | 0.251 | -0.741
